Source: patent publication US10611774B2, “Salt form of DPPIV inhibitor and preparation method thereof” (SHANGHAI INSTITUTE OF MATERIA MEDICA, CHINESE ACADEMY OF …, priority 2016, dated 2020)
Some of these results come from one statement about several compounds together. At least one structure is not confirmed: it was looked up by name or label, or the drawing left a doubt.

Assay: Hygroscopicity analysis (DVS)
Assay type: physicochemical
Conditions: relative humidity less than 50%
Description: Dynamic vapor absorption (DVS) test/water absorption test rapidly measures the increase and loss of the moisture in the sample caused by flow carrier gas with set relative humidity (RH), wherein the sample is placed on a digital microbalance with high sensitivity and high stability at a self-suspension state, and then the adsorption/desorption of water vapor is measured by measuring the increase/decrease of mass of the material, thereby determining the hygroscopicity of the sample.
In the present invention, the test parameters of the DVS are as follows: Instrument type: SMS DVS Intrinsic; Non-hydrate: 0 to 95%-0% RH; Temperature: 25° C.; Hydrate: 40 to 95%-0% RH; Temperature: 25° C.
Work on `COC(=O)c1cc2nc(N3CCC[C@@H](N)C3)n(Cc3ccccc3C#N)c(=O)c2s1.O=P(O)(O)O` [phosphate, phosphate of (R)-methyl-2-(3-aminopiperidin-1-yl)-3-(2-cyanobenzyl)-4-carbonyl-3,4-dihydrothiophene[3,2-d]pyrimidine-6-carboxylic acid] yielded a hygroscopicity of at most 0.3%. In the case of `COC(=O)c1cc2nc(N3CCC[C@@H](N)C3)n(Cc3ccccc3C#N)c(=O)c2s1.Cl` [hydrochloride, hydrochloride of (R)-methyl-2-(3-aminopiperidin-1-yl)-3-(2-cyanobenzyl)-4-carbonyl-3,4-dihydrothiophene [3,2-d] pyrimidine-6-carboxylic acid], the hygroscopicity is reported as at most 0.3%. Work on `COC(=O)c1cc2nc(N3CCC[C@@H](N)C3)n(Cc3ccccc3C#N)c(=O)c2s1.O=C(O)/C=C\C(=O)O` [maleate, maleate of (R)-methyl-2-(3-aminopiperidin-1-yl)-3-(2-cyanobenzyl)-4-carbonyl-3,4-dihydrothiophene[3,2-d]pyrimidine-6-carboxylic acid] yielded a hygroscopicity of at most 0.3%.
